# Laboratory results taken from PMC8302610.
# Chains of the proteins cited; added tags and fusions are not shown.
# UniProt Q9UBN7: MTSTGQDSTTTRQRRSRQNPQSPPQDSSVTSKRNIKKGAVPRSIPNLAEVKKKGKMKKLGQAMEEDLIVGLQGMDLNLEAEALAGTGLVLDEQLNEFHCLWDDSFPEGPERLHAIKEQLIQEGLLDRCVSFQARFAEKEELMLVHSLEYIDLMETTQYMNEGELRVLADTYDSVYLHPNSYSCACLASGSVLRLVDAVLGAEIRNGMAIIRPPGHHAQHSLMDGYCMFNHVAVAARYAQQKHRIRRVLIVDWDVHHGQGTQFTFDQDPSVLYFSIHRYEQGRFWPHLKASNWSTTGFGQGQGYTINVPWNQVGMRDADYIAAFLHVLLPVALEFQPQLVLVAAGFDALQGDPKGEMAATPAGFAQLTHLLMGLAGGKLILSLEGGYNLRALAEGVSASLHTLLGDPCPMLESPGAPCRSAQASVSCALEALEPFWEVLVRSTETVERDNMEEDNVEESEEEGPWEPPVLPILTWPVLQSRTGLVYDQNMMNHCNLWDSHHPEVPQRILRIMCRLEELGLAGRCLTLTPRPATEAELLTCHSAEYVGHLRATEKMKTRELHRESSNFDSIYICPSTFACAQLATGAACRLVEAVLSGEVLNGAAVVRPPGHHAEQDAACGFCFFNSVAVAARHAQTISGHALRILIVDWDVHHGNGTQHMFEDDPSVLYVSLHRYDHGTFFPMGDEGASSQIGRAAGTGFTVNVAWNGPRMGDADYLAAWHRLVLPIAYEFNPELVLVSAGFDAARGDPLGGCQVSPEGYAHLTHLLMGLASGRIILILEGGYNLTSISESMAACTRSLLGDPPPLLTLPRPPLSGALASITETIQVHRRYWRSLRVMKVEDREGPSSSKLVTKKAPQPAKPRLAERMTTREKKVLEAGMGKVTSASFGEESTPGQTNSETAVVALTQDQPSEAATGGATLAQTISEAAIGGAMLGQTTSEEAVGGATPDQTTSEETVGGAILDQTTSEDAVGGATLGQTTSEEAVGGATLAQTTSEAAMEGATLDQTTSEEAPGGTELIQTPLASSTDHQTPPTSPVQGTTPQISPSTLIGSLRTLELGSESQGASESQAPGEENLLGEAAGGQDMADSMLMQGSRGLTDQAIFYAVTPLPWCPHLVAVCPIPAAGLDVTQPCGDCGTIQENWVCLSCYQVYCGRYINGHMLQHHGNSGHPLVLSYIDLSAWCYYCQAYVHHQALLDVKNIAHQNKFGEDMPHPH
# UniProt Q96RD7: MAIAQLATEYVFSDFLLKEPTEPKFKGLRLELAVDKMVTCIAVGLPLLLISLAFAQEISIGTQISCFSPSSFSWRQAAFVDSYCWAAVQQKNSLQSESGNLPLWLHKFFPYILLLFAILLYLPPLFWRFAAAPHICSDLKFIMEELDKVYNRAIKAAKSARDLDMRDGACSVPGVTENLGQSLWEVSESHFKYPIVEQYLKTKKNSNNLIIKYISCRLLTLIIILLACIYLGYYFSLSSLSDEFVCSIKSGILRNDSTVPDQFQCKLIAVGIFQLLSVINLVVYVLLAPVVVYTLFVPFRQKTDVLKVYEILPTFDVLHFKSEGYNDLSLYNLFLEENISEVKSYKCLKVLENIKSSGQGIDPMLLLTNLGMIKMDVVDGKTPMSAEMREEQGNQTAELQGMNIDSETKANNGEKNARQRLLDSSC
# No constants are given. Whether binding was seen depends on the method and setting. In cells and extracts the contact can be indirect. Some results given as binding are weak or reduced against the parent protein; the word gives no strength.
# Molecular target: FLAG-tagged HDAC6 (histone deacetylase 6) (UniProt Q9UBN7)
# Test: co-IP; FLAG-tagged HDAC6 and Strep-tagged PANX1 co-expressed in HEK293T cells (~24 h); lysis in PBS with 1% Triton X-100, protease inhibitors, 10 mM NaF, 10 mM NaVO3; HDAC6-FLAG precipitated with anti-FLAG M2 agarose; PANX1 detected by immunoblot with an anti-Panx1 antibody
substance,measurement,value
Strep-tagged human Pannexin 1 (hPANX1-Strep) (from UniProt Q96RD7 1-426),binding,binds
